Values quoted from earlier work, collected in patent US20040204435A1, “Alternating treatment with topoisomerase I and topoisomerase II inhibitors” (priority 2003, published 2004).
At least one structure is not confirmed: it was looked up by name or label, or the drawing left a doubt.

Settings: in mice

In the case of CC[C@@]1(O)C(=O)OCc2c1cc1n(c2=O)Cc2cc3c([N+](=O)[O-])cccc3nc2-1 [9NC, 9-nitrocamptothecin], the “equilibrium between active lactone and salt forms” value is listed as ~1:1.
